Test results: PubChem BioAssay AID1347076 (National Center for Advancing Translational Sciences (NCATS), 2019)
Where “and” joins values, the source holds several entries; their conditions need not be identical. Equal entries are not always repeated. In all, about 400,000 compounds went through this assay and about 13,000 (3.2%) were called active. Inconclusive results, whose numbers are uncertain, are shown with a selection of clear calls. Calls follow the shape of the dose curve; as a rule, active = well fitted cell-killing curve with a large enough effect; inconclusive = small, poorly fitted or top-dose-only effect, or effect the other way; inactive = flat fitted curve, though single readings scatter. Where the call is inconclusive, the potency comes from a doubtful curve fit.

Experiment: qHTS assay for MDR1-selective chemotherapeutics: Primary screen using the drug-selected MDR subline cells KB-V1; also: nearly all actives have a fitted effect of over 60% in size
Details: KB-V1 MDR cells viability, CellTiter-Glo, 72 h; activity change, negative = cytotoxicity: at 46.1 µM (top of the series)
Outline: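 KB-V1, DMEM (no phenol red) + 10% FBS; cpd pin-transferred, titration series; 72 h, 37 degrees C; CellTiter-Glo, luminescence. Data normalized, curve-fit.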
% is scaled to controls: 0 for no effect and ±100 for the full control effect; potency is read from the fitted curve at half-maximal effect.

Row | SMILES | Potency | activity change, negative = cytotoxicity
1 | CCCc1nc2oc(C(=O)c3ccccc3)c(N)c2c2c1COC(C)(C)C2 | inconclusive: 0.103 µM [cytotoxic, full curve] | –
2 | N#Cc1cn(Cc2ccco2)c(=O)[nH]c1=O | inconclusive: 23.1 µM [rising, single point] | –
3 | NC(=O)C1(N2CCCCC2)CCN(C(=S)Nc2ccc(F)cc2)CC1 | inconclusive: 14.6 µM [cytotoxic, partial curve] | –
4 | CC(C)C[C@H]1CN=C(Nc2ccccc2)N1CCCC1CCCC1 | inconclusive: 18.4 µM [cytotoxic, single point] | –
5 | CN(C)Cc1c(-c2ccc(Cl)cc2)nc2ccccn12 | inconclusive: 20.6 µM [cytotoxic, partial curve, poor fit] | –
6 | COc1cc(C(=O)NNC2=CC(=O)CC(C)(C)C2)cc(OC)c1OC | inactive | –
7 | COc1ccc(Cc2n[nH]c(=S)n2Cc2ccccc2)cc1Cl | inconclusive: 16.4 µM [cytotoxic, single point] | –
8 | Cc1cccc(OCC(=O)Nc2ccc3c(c2)nc(CCNC(=O)c2ccco2)n3C)c1 | inactive | –
9 | Cc1ccc(-c2noc(C3CCCN(C(=O)c4ccccc4Br)C3)n2)o1 (stereo not given) | inconclusive: 13 µM [cytotoxic, partial curve, poor fit] | –
10 | O=C(CSc1ncnc2ccccc12)c1ccc2c(c1)OCCO2 | inconclusive: 14.6 µM [cytotoxic, partial curve, poor fit] | –
11 | Cc1cccc(N2CCN(S(=O)(=O)c3ccc4[nH]c(=O)ccc4c3)CC2)c1C | inconclusive: 29.1 µM [cytotoxic, single point] | –
12 | CCC(CC)c1nnc(NC(=O)c2ccc(N3CCCCC3)c([N+](=O)[O-])c2)s1 | inconclusive: 11.6 µM [cytotoxic, partial curve] | –
13 | O=C(Nc1ccccc1C(=O)NC(Cc1ccccc1)C(=O)NC1CCCCC1)c1ccccc1 (stereo not given) | inconclusive: 9.2 µM [cytotoxic, partial curve] | –
14 | COc1ccc(OC)c(C(O)c2ncc(-c3ccccc3OC)[nH]2)c1 (stereo not given) | inconclusive: 25.9 µM [cytotoxic, single point] | –
15 | Cc1ccc(Sc2ccc(NC(=O)c3ccc(F)cc3)cc2C#N)cc1 | inactive | –
16 | O=C(NCCCn1ccnc1)c1nn2c(C(F)(F)F)cc(-c3ccc(Br)cc3)nc2c1Cl | inconclusive: 29.1 µM [cytotoxic, single point] and inconclusive: 20.6 µM [cytotoxic, single point] | –
17 | CCCNc1cc(=S)nc(N)[nH]1 | inactive | –
18 | c1ccc(COn2nnc3ccccc32)c(COn2nnc3ccccc32)c1 | active: 16.4 µM | –
19 | COc1ccc(NC(=S)Nc2ccc3nsnc3c2)cc1 | active: 18.4 µM | –
20 | COc1ccc(OC)c2c1cc(C(=O)N[C@@H](Cc1ccccc1)C(=O)O)n2C | inconclusive: 29.1 µM [rising, single point] | –
21 | COc1ccccc1NC(=S)NCc1ccc2c(c1)cc(C)n2C | inactive | –
22 | COc1ccc2nc(NC(=O)C3CCN(C(=O)c4ccc(F)cc4)CC3)sc2c1 | inconclusive: 20.6 µM [cytotoxic, single point] | –
23 | c1ccc(N2CCN(Cc3ccnc4ccccc34)CC2)cc1 | inactive | –
24 | COc1ccc(-c2nc(SCc3ccccc3)n(S(C)(=O)=O)n2)cc1 | inconclusive: 8.91 µM [cytotoxic, partial curve, poor fit] | –

Row | SMILES | Potency | activity change, negative = cytotoxicity
25 | CC(=O)Nc1ccc(S(=O)(=O)NCCc2ccc3c(c2)OCCO3)cc1 | inactive | –
26 | COc1ccc(-c2noc(N3CCN(c4cccc(C)c4C)CC3)n2)cc1OC | inconclusive: 11.6 µM [cytotoxic, partial curve] | –
27 | COc1ccc(CCNC(=O)CCc2c(C)nc3c(c(C)nn3-c3ccccc3)c2C)c(OC)c1 | inactive | –
28 | Cc1nc2ccccc2n1CCCOc1ccccc1 | inconclusive: 20.6 µM [cytotoxic, single point] | –
29 | CC1CCCC(NC(=O)CN(C)CC(=O)Nc2cccc(F)c2)C1C (stereo not given) | inactive | –
30 | COc1ccc(/C=C2/C(=O)N(c3ccccc3)N=C2C)cc1OC | – | inconclusive: 32.1%
31 | O=C(CC1C(=O)NCCN1Cc1ccc(F)c(F)c1)NCCCn1ccnc1 (stereo not given) | inactive | –
32 | C[C@@H](C(=O)Nc1cc(C(F)(F)F)ccc1N1CCOCC1)N1C(=O)C2CC=CCC2C1=O (stereo not given in full) | inconclusive: 29.1 µM [rising, single point] | –
33 | O=C(Nc1ccccc1O)c1ccc(C(=O)c2ccccc2)o1 | inconclusive: 25.9 µM [cytotoxic, single point] | –
34 | COc1ccc(-n2c(SCCC#N)nnc2-c2cc(Cl)ccc2OC)cc1Cl | inconclusive: 20.6 µM [cytotoxic, single point] | –
35 | CC(=O)c1ccc(N2CCN(C(=O)CCCn3c(=O)[nH]c4ccc(Br)cc4c3=O)CC2)cc1 | inactive | –
36 | c1ccc2c(c1)OCC(c1nn3c(Cn4nnc5ccccc54)nnc3s1)O2 (stereo not given) | inconclusive: 29.1 µM [cytotoxic, single point] | –
37 | CCc1ccc(NC(=O)c2cc(C)on2)cc1 | inconclusive: 18.4 µM [cytotoxic, partial curve] | –
38 | C=C(C(=O)c1ccccc1)C(NC(C)(C)C)c1ccccc1 (stereo not given) | inconclusive: 3.26 µM [cytotoxic, partial curve, poor fit] | –
39 | O=C(Cc1n[nH]c(=O)c2ccccc12)OCC(=O)c1ccc(F)cc1 | inactive | –
40 | COc1ccc(/C=C(\NC(=O)c2cccs2)C(=O)NCc2ccco2)cc1OC | inactive | –
41 | CCC(=O)NC(c1ccc(OC)c(OC)c1)c1cc(Cl)c2cccnc2c1O (stereo not given) | inconclusive: 2.06 µM [cytotoxic, full curve] | –
42 | COc1cc(CNCCc2ccccc2)ccc1OCc1ccc(Cl)nc1 | inconclusive: 20.6 µM [cytotoxic, partial curve, poor fit] | –
43 | CN(C)C(=O)CN1CCN(C(=O)CCl)CC1 | inactive | –
44 | COc1cccc(OC)c1C(=O)NNC(=O)c1ccc(F)cc1 | inconclusive: 18.4 µM [rising, single point] | –
45 | Cn1c2ccc(F)cc2c2ncn(CCCN(CCO)CCO)c(=O)c21 | inactive | –
46 | O=C(c1ccco1)N1CCN(C(=O)N2c3ccccc3Sc3ccccc32)CC1 | active: 0.651 µM | –
47 | CC(C)CNC(=O)c1cccc(NC(=O)COc2cccc([N+](=O)[O-])c2)c1 | inconclusive: 29.1 µM [cytotoxic, single point] | –
48 | c1cc2c3c(cccc3c1)NN=N2 | inconclusive: 5.8 µM [cytotoxic, full curve] | –

Row | SMILES | Potency | activity change, negative = cytotoxicity
49 | Oc1oc(-c2ccccc2)nc1/C=N/c1nccs1 | inconclusive: 23.1 µM [rising, single point] | –
50 | COc1ccc(C(=O)Nc2nnc(C3=COCCO3)o2)cc1OC | inconclusive: 16.4 µM [cytotoxic, single point] | –
51 | C=CCn1c(SCC(=O)Nc2ccc3c(c2)OCO3)nnc1-c1ccccc1O | inconclusive: 8.2 µM [cytotoxic, partial curve] | –
52 | CCCc1ccc(OCC(O)CN2CCN(c3ccccc3)CC2)cc1 (stereo not given) | – | inconclusive: -19.2%
53 | Cc1ccc(-n2c(O)c(/C=N/Nc3ccc(S(=O)(=O)N4CCOCC4)cc3[N+](=O)[O-])c3ccccc3c2=O)c(C)c1 | inconclusive: 18.4 µM [cytotoxic, single point] | –
54 | CCOc1ccc(N(CC(=O)NCc2ccc(Cl)cc2)S(=O)(=O)c2c(C)noc2C)cc1 | inconclusive: 29.1 µM [rising, single point] | –
55 | Cc1noc(C)c1C(=O)N1CCC(Cc2ccccc2)CC1 | active: 14.6 µM | –
56 | Cc1c(C=O)c2ccccn2c1C(=O)c1ccncc1 | inconclusive: 35.5 µM [cytotoxic, single point] | –
57 | Cc1c2c(nc3ccccc13)CCC(C(C)(C)C)C2 (stereo not given) | inactive | –
58 | O=C(CNc1ccc(Cl)c(C(F)(F)F)c1)N1CCN(S(=O)(=O)c2ccccc2)CC1 | inconclusive: 29.1 µM [cytotoxic, single point] | –
59 | Cc1cc(NC(=O)Nc2csc3c2CCCC3)ccc1Br | inconclusive: 32.6 µM [cytotoxic, single point] | –
60 | Cc1ccc(CNC(=O)C2CCCN(S(=O)(=O)N3CC(C)CC(C)C3)C2)cc1 (stereo not given) | inactive | –
61 | CC(C)[N+]1(C)[C@@H]2CC[C@H]1CC(OC(=O)C(CO)c1ccccc1)C2 (stereo not given in full) | inconclusive: 0.231 µM [rising, full curve, poor fit] | –
62 | CNc1cncc(-c2cnn(CC(C)C)c2)n1 | inactive | –
63 | Cc1c(NC(=O)c2ccc(N3CCC(C)CC3)c([N+](=O)[O-])c2)cccc1-c1nc2ccccc2o1 | inactive | –
64 | Cc1ccc(C(=O)Nc2ccc(OCc3cc(=O)n4c5c(sc4n3)CCCC5)cc2)cc1 | inactive | –
65 | Cc1cccc(C)c1NC(=O)C(c1cc2ccccc2o1)N1CCC(c2ccccc2)CC1 (stereo not given) | active: 20.6 µM | –
66 | Cc1cccc(NC(=S)N2CCC(NC(=O)C3CCCCC3)CC2)c1 | inconclusive: 13 µM [cytotoxic, partial curve, poor fit] | –
67 | O=S(=O)(c1ccccc1)C1CC1(c1ccccc1)c1ccccc1 (stereo not given) | inconclusive: 29.1 µM [cytotoxic, partial curve, poor fit] | –
68 | O=C(NNC(=O)C1CCCN(c2ncccn2)C1)c1ccc(F)cc1 (stereo not given) | inconclusive: 23.1 µM [cytotoxic, single point] | –
69 | CCc1ccc(NC(=O)CSC2=C(C#N)C(c3ccc4c(c3)OCO4)CC(=O)N2)cc1 (stereo not given) | inconclusive: 29.1 µM [cytotoxic, single point] | –
70 | C[C@@H]1CN([C@@H](C)CO)C(=O)c2cc(NC(=O)Nc3ccc(F)cc3)ccc2O[C@@H]1CN(C)Cc1ccc(Oc2ccccc2)cc1 | – | inconclusive: -38.1% [cytotoxic]
